Assay [1] concerns the target holo-human transferrin (human) (UniProt P02787). Description: affinity purification with mass spectrometry; heme–HPX or holo-human Tf Affi-Gel 15 against ovalbumin Affi-Gel 15; HepG2 whole-cell extracts (0.5% Triton X-100, HEPES pH 7.4, 150 mM NaCl); 2-fold or greater over the negative control counted as specifically bound; only the target purified.
The target in assay [2] is T1, mesoheme–rabbit hemopexin (1:1 heme–HPX complex) (rabbit) (UniProt P20058).
T1 sequence: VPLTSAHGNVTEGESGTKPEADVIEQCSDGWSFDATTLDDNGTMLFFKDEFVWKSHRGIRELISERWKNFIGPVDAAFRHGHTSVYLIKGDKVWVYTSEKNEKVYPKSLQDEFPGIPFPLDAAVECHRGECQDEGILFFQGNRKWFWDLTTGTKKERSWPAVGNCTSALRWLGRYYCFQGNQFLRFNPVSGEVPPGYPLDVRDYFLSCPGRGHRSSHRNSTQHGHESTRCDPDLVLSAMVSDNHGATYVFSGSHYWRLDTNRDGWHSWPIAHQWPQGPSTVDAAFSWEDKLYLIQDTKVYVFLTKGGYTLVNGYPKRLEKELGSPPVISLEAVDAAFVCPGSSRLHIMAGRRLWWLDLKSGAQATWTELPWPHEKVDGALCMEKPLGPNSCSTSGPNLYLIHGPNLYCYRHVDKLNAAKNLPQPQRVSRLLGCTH
The assay can be described thus: affinity purification with mass spectrometry; proto-heme–human HPX, mesoheme–rabbit HPX or holo-human Tf Affi-Gel 15; detergent extracts of primary human hepatocytes; proteins found on underivatized, mouse IgG or ovalbumin resins filtered out; only the target purified.

The chains behind the UniProt entries cited, without tags or fusion partners. Residues count along the entry.
UniProt P02787, residues 20-698: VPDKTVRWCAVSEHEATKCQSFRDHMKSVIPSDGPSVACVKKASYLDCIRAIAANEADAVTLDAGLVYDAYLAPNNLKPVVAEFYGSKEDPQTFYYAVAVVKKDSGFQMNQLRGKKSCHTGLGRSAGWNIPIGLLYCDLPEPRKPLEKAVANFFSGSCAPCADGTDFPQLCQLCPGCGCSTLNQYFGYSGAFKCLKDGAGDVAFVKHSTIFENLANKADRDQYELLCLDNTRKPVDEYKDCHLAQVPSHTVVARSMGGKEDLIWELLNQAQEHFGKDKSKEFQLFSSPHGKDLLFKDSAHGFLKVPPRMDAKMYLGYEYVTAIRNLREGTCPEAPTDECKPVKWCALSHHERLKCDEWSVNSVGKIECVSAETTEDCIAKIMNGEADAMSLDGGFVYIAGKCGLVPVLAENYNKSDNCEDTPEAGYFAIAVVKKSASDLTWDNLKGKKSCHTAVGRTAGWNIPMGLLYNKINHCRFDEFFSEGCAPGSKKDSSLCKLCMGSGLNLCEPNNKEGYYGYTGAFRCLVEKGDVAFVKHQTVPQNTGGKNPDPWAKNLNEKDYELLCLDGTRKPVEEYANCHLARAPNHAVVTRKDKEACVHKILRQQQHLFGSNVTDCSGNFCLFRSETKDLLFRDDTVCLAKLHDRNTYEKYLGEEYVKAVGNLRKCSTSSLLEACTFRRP
UniProt Q92922: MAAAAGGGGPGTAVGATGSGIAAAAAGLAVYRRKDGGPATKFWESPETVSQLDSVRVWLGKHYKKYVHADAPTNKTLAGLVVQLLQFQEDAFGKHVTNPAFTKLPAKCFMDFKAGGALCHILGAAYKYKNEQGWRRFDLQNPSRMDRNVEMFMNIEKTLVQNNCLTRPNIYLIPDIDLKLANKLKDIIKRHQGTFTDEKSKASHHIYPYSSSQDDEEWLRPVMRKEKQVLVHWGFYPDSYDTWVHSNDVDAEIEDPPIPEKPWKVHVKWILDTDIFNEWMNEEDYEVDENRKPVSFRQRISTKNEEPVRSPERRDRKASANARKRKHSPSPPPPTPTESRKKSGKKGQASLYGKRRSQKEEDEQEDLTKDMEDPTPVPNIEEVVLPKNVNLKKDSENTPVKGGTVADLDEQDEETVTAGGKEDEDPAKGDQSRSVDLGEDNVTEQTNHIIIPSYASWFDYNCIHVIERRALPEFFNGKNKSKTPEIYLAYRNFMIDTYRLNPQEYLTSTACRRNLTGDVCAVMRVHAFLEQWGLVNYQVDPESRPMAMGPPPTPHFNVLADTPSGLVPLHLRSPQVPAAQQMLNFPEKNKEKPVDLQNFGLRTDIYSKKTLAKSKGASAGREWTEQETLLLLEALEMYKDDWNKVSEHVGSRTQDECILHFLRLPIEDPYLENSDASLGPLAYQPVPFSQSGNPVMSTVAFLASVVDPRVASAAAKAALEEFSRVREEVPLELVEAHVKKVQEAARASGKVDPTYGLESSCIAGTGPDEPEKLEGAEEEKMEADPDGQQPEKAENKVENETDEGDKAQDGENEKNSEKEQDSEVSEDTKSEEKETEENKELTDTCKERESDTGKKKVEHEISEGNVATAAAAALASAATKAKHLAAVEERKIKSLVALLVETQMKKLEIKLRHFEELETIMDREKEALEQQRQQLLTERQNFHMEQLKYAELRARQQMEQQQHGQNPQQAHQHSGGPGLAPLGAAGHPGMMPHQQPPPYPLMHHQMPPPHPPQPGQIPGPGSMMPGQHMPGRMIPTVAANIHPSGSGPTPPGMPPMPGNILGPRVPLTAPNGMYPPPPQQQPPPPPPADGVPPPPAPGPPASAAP
UniProt Q7L5N1: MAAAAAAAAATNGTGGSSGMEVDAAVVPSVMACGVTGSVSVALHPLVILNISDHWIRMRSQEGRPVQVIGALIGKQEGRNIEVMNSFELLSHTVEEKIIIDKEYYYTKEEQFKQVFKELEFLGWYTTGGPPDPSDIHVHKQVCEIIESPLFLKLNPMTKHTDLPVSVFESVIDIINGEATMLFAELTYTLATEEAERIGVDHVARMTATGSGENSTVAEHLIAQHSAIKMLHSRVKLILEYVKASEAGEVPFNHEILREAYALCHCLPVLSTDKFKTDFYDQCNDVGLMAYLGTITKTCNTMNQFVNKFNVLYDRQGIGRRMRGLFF
UniProt P62333: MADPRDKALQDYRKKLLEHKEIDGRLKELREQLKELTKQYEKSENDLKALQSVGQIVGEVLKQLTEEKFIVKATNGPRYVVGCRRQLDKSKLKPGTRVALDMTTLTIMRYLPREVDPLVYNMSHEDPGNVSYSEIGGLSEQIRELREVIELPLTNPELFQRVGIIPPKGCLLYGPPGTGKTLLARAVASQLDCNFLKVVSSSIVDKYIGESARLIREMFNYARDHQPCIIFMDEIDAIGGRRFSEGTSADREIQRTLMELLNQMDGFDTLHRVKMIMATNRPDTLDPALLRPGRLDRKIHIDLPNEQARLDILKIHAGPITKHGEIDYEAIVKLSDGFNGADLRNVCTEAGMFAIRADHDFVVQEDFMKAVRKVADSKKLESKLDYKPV
UniProt Q96Q89: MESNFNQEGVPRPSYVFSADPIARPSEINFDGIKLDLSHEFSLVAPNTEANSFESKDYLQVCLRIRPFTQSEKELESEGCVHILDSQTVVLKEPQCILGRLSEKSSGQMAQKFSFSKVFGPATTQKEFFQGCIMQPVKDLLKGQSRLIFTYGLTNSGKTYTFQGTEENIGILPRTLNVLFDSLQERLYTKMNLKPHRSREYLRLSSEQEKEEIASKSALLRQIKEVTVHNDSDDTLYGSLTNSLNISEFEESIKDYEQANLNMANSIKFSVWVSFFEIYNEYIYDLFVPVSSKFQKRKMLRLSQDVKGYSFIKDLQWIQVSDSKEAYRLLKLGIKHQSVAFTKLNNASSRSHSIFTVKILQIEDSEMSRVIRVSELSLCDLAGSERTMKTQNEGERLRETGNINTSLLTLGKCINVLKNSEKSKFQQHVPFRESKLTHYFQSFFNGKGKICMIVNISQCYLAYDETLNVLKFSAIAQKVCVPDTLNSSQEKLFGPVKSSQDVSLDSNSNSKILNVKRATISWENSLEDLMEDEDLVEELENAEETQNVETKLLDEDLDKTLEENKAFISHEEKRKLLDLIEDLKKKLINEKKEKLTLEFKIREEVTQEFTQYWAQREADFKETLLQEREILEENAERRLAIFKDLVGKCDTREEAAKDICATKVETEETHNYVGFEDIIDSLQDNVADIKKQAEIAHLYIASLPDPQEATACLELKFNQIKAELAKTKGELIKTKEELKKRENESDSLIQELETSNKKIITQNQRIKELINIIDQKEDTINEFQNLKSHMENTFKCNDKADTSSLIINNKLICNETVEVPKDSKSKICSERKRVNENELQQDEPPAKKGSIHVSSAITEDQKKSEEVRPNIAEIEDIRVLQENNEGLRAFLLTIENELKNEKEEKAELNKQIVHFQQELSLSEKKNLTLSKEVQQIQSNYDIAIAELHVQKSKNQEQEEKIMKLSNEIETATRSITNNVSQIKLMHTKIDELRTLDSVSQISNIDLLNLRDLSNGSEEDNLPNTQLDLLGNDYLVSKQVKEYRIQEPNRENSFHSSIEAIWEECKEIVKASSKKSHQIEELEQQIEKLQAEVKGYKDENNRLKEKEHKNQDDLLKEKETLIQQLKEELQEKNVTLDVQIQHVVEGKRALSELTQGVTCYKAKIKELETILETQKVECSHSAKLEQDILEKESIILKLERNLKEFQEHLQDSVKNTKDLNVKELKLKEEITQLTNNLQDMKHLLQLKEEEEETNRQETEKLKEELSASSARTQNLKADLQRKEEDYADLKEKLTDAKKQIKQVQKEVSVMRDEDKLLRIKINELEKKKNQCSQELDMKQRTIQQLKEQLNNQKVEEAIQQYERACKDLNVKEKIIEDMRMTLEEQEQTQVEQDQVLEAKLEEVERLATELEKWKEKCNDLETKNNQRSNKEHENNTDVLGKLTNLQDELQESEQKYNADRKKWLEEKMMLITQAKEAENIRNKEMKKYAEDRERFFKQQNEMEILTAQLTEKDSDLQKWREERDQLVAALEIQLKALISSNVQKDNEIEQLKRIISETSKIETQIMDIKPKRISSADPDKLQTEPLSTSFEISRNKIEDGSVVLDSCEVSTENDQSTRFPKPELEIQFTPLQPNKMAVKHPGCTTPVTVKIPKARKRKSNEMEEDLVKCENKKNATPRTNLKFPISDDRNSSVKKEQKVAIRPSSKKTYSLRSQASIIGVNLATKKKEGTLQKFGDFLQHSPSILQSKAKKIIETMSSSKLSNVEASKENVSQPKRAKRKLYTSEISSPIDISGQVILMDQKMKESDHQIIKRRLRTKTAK
UniProt P30405, residues 30-207: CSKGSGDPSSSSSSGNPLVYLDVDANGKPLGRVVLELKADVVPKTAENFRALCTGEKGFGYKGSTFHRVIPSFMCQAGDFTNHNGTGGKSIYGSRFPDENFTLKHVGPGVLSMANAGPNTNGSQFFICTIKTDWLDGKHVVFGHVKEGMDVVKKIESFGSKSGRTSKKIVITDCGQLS
UniProt Q5VTR2: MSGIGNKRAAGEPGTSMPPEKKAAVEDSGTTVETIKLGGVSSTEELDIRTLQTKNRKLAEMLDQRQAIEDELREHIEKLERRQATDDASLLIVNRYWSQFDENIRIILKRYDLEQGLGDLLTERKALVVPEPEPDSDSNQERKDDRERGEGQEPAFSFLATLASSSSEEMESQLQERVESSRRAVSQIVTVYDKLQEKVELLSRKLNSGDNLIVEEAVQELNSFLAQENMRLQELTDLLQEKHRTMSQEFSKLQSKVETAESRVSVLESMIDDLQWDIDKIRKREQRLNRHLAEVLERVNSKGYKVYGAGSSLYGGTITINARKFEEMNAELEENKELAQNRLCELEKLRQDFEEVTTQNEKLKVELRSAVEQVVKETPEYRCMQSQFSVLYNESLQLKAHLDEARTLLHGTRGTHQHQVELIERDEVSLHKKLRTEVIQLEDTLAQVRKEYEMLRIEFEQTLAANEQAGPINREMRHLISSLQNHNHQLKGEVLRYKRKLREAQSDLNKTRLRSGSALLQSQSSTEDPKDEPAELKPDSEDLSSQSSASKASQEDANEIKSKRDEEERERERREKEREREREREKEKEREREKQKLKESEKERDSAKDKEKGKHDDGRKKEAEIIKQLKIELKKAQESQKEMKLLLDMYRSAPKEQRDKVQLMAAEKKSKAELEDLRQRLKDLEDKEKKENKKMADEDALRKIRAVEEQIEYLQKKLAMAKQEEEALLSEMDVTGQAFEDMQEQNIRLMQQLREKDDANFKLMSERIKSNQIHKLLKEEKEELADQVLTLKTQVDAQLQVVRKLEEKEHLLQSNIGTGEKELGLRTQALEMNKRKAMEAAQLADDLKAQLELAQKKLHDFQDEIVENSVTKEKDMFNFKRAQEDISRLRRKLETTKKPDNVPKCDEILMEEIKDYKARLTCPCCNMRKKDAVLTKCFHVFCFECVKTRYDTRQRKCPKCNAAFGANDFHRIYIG
UniProt P02788, residues 20-710: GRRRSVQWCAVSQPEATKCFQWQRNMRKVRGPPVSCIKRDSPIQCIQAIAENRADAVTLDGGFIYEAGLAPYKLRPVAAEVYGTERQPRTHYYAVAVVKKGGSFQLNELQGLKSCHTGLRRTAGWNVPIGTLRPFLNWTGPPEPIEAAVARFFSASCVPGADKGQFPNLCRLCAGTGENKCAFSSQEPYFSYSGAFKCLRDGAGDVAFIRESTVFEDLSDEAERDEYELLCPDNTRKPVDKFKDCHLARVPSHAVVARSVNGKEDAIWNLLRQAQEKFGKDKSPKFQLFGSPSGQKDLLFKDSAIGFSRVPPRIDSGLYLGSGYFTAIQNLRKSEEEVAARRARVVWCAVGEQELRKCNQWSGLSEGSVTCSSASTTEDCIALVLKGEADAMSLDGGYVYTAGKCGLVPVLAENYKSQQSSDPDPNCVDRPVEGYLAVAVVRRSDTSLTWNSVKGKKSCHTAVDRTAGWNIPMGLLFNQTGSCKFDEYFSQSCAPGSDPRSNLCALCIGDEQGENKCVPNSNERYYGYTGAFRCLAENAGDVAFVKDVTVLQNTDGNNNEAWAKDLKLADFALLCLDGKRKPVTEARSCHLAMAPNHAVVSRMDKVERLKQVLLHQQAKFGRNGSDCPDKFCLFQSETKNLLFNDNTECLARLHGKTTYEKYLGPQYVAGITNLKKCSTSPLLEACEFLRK

No constants are given. Whether binding was seen depends on the method and setting. Binding seen in cells or lysates may run through a third protein. These calls come from enrichment with a bait or labelling near it, and not all partners need be listed.

In the case of “SWI/SNF-related BAF chromatin remodeling complex subunit C1 (from UniProt Q92922 1-1105)”, the binding entry in assay [1] is listed as “binds”.

With “COP9 signalosome complex subunit (from UniProt Q7L5N1 1-327)”, the binding result in assay [1] is listed as “binds”.

As for “Proteasome 26S subunit (from UniProt P62333 1-389)”, the binding result in assay [1] is “binds”.

Consider “Kinesin family member (from UniProt Q96Q89 1-1820)”, for which the binding entry in assay [1] is “binds”.

Take “Peptidyl-prolyl cis-trans isomerase F (from UniProt P30405 30-207) (enzyme)”: in assay [1], the binding entry is “binds”.

Turning to “Ring finger protein 20 (from UniProt Q5VTR2 1-975) (enzyme)”, the binding entry in assay [1] was “binds”.

Consider “Lactoferrin (from UniProt P02788 20-710)”, for which the binding entry in assay [1] is “binds”.

B1: Cystatin E/M (protein, UniProt Q15828 29-149)
chain: RPQERMVGELRDLSPDDPQVQKAAQAAVASYNMGSNSIYYFRDTHIIKAQSQLVAGIKYFLTMEMGSTDCRKTRVTGDHVDLTTCPLAAGAQQEKLRCDFEVLVVPWQNSSQLLKHNCVQM
In the case of B1, the binding entry in assay [2] is given as “binds”.

B2: Glycosylphosphatidylinositol specific phospholipase D1 (enzyme, UniProt P80108 24-840)
chain: CGLSTHVEIGHRALEFLQLHNGRVNYRELLLEHQDAYQAGIVFPDCFYPSICKGGKFHDVSESTHWTPFLNASVHYIRENYPLPWEKDTEKLVAFLFGITSHMAADVSWHSLGLEQGFLRTMGAIDFHGSYSEAHSAGDFGGDVLSQFEFNFNYLARRWYVPVKDLLGIYEKLYGRKVITENVIVDCSHIQFLEMYGEMLAVSKLYPTYSTKSPFLVEQFQEYFLGGLDDMAFWSTNIYHLTSFMLENGTSDCNLPENPLFIACGGQQNHTQGSKMQKNDFHRNLTTSLTESVDRNINYTERGVFFSVNSWTPDSMSFIYKALERNIRTMFIGGSQLSQKHVSSPLASYFLSFPYARLGWAMTSADLNQDGHGDLVVGAPGYSRPGHIHIGRVYLIYGNDLGLPPVDLDLDKEAHRILEGFQPSGRFGSALAVLDFNVDGVPDLAVGAPSVGSEQLTYKGAVYVYFGSKQGGMSSSPNITISCQDIYCNLGWTLLAADVNGDSEPDLVIGSPFAPGGGKQKGIVAAFYSGPSLSDKEKLNVEAANWTVRGEEDFSWFGYSLHGVTVDNRTLLLVGSPTWKNASRLGHLLHIRDEKKSLGRVYGYFPPNGQSWFTISGDKAMGKLGTSLSSGHVLMNGTLKQVLLVGAPTYDDVSKVAFLTVTLHQGGATRMYALTSDAQPLLLSTFSGDRRFSRFGGVLHLSDLDDDGLDEIIMAAPLRIADVTSGLIGGEDGRVYVYNGKETTLGDMTGKCKSWITPCPEEKAQYVLISPEASSRFGSSLITVRSKAKNQVVIAAGRSSLGARLSGALHVYSLGSD
Turning to B2, the binding result in assay [2] was “binds”.

B3: Dopamine β-hydroxylase (enzyme, UniProt P09172 1-617)
chain: MPALSRWASLPGPSMREAAFMYSTAVAIFLVILVAALQGSAPRESPLPYHIPLDPEGSLELSWNVSYTQEAIHFQLLVRRLKAGVLFGMSDRGELENADLVVLWTDGDTAYFADAWSDQKGQIHLDPQQDYQLLQVQRTPEGLTLLFKRPFGTCDPKDYLIEDGTVHLVYGILEEPFRSLEAINGSGLQMGLQRVQLLKPNIPEPELPSDACTMEVQAPNIQIPSQETTYWCYIKELPKGFSRHHIIKYEPIVTKGNEALVHHMEVFQCAPEMDSVPHFSGPCDSKMKPDRLNYCRHVLAAWALGAKAFYYPEEAGLAFGGPGSSRYLRLEVHYHNPLVIEGRNDSSGIRLYYTAKLRRFNAGIMELGLVYTPVMAIPPRETAFILTGYCTDKCTQLALPPSGIHIFASQLHTHLTGRKVVTVLVRDGREWEIVNQDNHYSPHFQEIRMLKKVVSVHPGDVLITSCTYNTEDRELATVGGFGILEEMCVNYVHYYPQTQLELCKSAVDAGFLQKYFHLINRFNNEDVCTCPQASVSQQFTSVPWNSFNRDVLKALYSFAPISMHCNKSSAVRFQGEWNLQPLPKVISTLEEPTPQCPTSQGRSPAGPTVVSIGGGKG
As to B3, in assay [2], the binding entry is given as “binds”.

B4: Hemopexin (human), found in HepG2 isolates (protein, UniProt P02790 24-462)
chain: TPLPPTSAHGNVAEGETKPDPDVTERCSDGWSFDATTLDDNGTMLFFKGEFVWKSHKWDRELISERWKNFPSPVDAAFRQGHNSVFLIKGDKVWVYPPEKKEKGYPKLLQDEFPGIPSPLDAAVECHRGECQAEGVLFFQGDREWFWDLATGTMKERSWPAVGNCSSALRWLGRYYCFQGNQFLRFDPVRGEVPPRYPRDVRDYFMPCPGRGHGHRNGTGHGNSTHHGPEYMRCSPHLVLSALTSDNHGATYAFSGTHYWRLDTSRDGWHSWPIAHQWPQGPSAVDAAFSWEEKLYLVQGTQVYVFLTKGGYTLVSGYPKRLEKEVGTPHGIILDSVDAAFICPGSSRLHIMAGRRLWWLDLKSGAQATWTELPWPHEKVDGALCMEKSLGPNSCSANGPGLYLIHGPNLYCYSDVEKLNAAKALPQPQNVTSLLGCTH
B4: the binding entry in assay [1] was “binds”.

B5: Amine oxidase, copper containing 3 (enzyme, UniProt Q16853 1-763)
chain: MNQKTILVLLILAVITIFALVCVLLVGRGGDGGEPSQLPHCPSVSPSAQPWTHPGQSQLFADLSREELTAVMRFLTQRLGPGLVDAAQARPSDNCVFSVELQLPPKAAALAHLDRGSPPPAREALAIVFFGRQPQPNVSELVVGPLPHPSYMRDVTVERHGGPLPYHRRPVLFQEYLDIDQMIFNRELPQASGLLHHCCFYKHRGRNLVTMTTAPRGLQSGDRATWFGLYYNISGAGFFLHHVGLELLVNHKALDPARWTIQKVFYQGRYYDSLAQLEAQFEAGLVNVVLIPDNGTGGSWSLKSPVPPGPAPPLQFYPQGPRFSVQGSRVASSLWTFSFGLGAFSGPRIFDVRFQGERLVYEISLQEALAIYGGNSPAAMTTRYVDGGFGMGKYTTPLTRGVDCPYLATYVDWHFLLESQAPKTIRDAFCVFEQNQGLPLRRHHSDLYSHYFGGLAETVLVVRSMSTLLNYDYVWDTVFHPSGAIEIRFYATGYISSAFLFGATGKYGNQVSEHTLGTVHTHSAHFKVDLDVAGLENWVWAEDMVFVPMAVPWSPEHQLQRLQVTRKLLEMEEQAAFLVGSATPRYLYLASNHSNKWGHPRGYRIQMLSFAGEPLPQNSSMARGFSWERYQLAVTQRKEEEPSSSSVFNQNDPWAPTVDFSDFINNETIAGKDLVAWVTAGFLHIPHAEDIPNTVTVGNGVGFFLRPYNFFDEDPSFYSADSIYFRGDQDAGACEVNPLACLPQAAACAPDLPAFSHGGFSHN
On to B5, for which, in assay [2], the binding entry was “binds”.

B6: Kallistatin (protein, UniProt P29622 21-427)
chain: QLHVEHDGESCSNSSHQQILETGEGSPSLKIAPANADFAFRFYYLIASETPGKNIFFSPLSISAAYAMLSLGACSHSRSQILEGLGFNLTELSESDVHRGFQHLLHTLNLPGHGLETRVGSALFLSHNLKFLAKFLNDTMAVYEAKLFHTNFYDTVGTIQLINDHVKKETRGKIVDLVSELKKDVLMVLVNYIYFKALWEKPFISSRTTPKDFYVDENTTVRVPMMLQDQEHHWYLHDRYLPCSVLRMDYKGDATVFFILPNQGKMREIEEVLTPEMLMRWNNLLRKRNFYKKLELHLPKFSISGSYVLDQILPRLGFTDLFSKWADLSGITKQQKLEASKSFHKATLDVDEAGTEAAAATSFAIKFFSAQTNRHILRFNRPFLVVIFSTSTQSVLFLGKVVDPTKP
B6: the binding result in assay [2] is on record as “binds”.

B7: Alpha-1-antichymotrypsin (protein, UniProt P01011 24-423)
chain: HPNSPLDEENLTQENQDRGTHVDLGLASANVDFAFSLYKQLVLKAPDKNVIFSPLSISTALAFLSLGAHNTTLTEILKGLKFNLTETSEAEIHQSFQHLLRTLNQSSDELQLSMGNAMFVKEQLSLLDRFTEDAKRLYGSEAFATDFQDSAAAKKLINDYVKNGTRGKITDLIKDLDSQTMMVLVNYIFFKAKWEMPFDPQDTHQSRFYLSKKKWVMVPMMSLHHLTIPYFRDEELSCTVVELKYTGNASALFILPDQDKMEEVEAMLLPETLKRWRDSLEFREIGELYLPKFSISRDYNLNDILLQLGIEEAFTSKADLSGITGARNLAVSQVVHKAVLDVFEEGTEASAATAVKITLLSALVETRTIVRFNRPFLMIIVPTDTQNIFFMSKVTNPKQA
For the molecule B7, the binding entry in assay [2] was “binds”.

B8: C1 inhibitor (protein, UniProt P05155 23-500)
chain: NPNATSSSSQDPESLQDRGEGKVATTVISKMLFVEPILEVSSLPTTNSTTNSATKITANTTDEPTTQPTTEPTTQPTIQPTQPTTQLPTDSPTQPTTGSFCPGPVTLCSDLESHSTEAVLGDALVDFSLKLYHAFSAMKKVETNMAFSPFSIASLLTQVLLGAGENTKTNLESILSYPKDFTCVHQALKGFTTKGVTSVSQIFHSPDLAIRDTFVNASRTLYSSSPRVLSNNSDANLELINTWVAKNTNNKISRLLDSLPSDTRLVLLNAIYLSAKWKTTFDPKKTRMEPFHFKNSVIKVPMMNSKKYPVAHFIDQTLKAKVGQLQLSHNLSLVILVPQNLKHRLEDMEQALSPSVFKAIMEKLEMSKFQPTLLTLPRIKVTTSQDMLSIMEKLEFFDFSYDLNLCGLTEDPDLQVSAMQHQTVLELTETGVEAAAASAISVARTLLVFEVQQPFLFVLWDQQHKFPVFMGRVYDPRA
With B8, the binding result in assay [2] is “binds”.

B9: Selenoprotein P (protein, UniProt P49908 20-381)
chain: ESQDQSSLCKQPPAWSIRDQDPMLNSNGSVTVVALLQASUYLCILQASKLEDLRVKLKKEGYSNISYIVVNHQGISSRLKYTHLKNKVSEHIPVYQQEENQTDVWTLLNGSKDDFLIYDRCGRLVYHLGLPFSFLTFPYVEEAIKIAYCEKKCGNCSLTTLKDEDFCKRVSLATVDKTVETPSPHYHHEHHHNHGHQHLGSSELSENQQPGAPNAPTHPAPPGLHHHHKHKGQHRQGHPENRDMPASEDLQDLQKKLCRKRCINQLLCKLPTDSELAPRSUCCHCRHLIFEKTGSAITUQCKENLPSLCSUQGLRAEENITESCQURLPPAAUQISQQLIPTEASASURUKNQAKKUEUPSN
For B9, the binding entry in assay [2] is recorded as “binds”.

The values are drawn from PMC12690290.
